Measurements from patent US20260116971A1.

Target: Chlorocebus (African green monkey) Nectin-2 (Chlorocebus (African green monkey))
Assay: FACS titration (20-0.0003 nM) on Vero cells (endogenous African green monkey Nectin-2)

B1: anti-Nectin-2 monoclonal antibody clone 11 (antibody, V domains shown)
VH: EVQLQQSGTVLTRPGASVKMSCKASGYIFTSYWIHWVKQRPGQGLEWIGAVYPGNSDSNYNQKFKAKAKLTAVTSTSTAYMELSSLTSEDSAVYYCTKLVGTFDYWGQGTTLTVSS
VL: DIVMTQSQKFMSSSIGDRVSVTCKASQNVGINVVWYQQRAGQSPKTLIYSASYRYSGVPDRFTGSGSGTDFTLTISNVQSEDLAEYFCQQYNTNPFTFGSGTKLEIK
B1 was tested, and the binding was “binds”.

Results are given in words; binding and its absence hold for the method and conditions named. A result given as binding can be weak or reduced; the word gives no strength.
